Source: PubChem BioAssay AID504444 (National Center for Advancing Translational Sciences (NCATS), 2011)
About 7,500 (2.1%) of roughly 360,000 compounds were called active. Inconclusive results, whose numbers are uncertain, are shown with a selection of clear calls. Calls come from the whole dose curve; as a rule, active = well fitted inhibition curve with a large enough effect; inconclusive = small, poorly fitted or top-dose-only effect, or effect the other way; inactive = flat fitted curve, though single readings scatter. Potencies of inconclusive entries are doubtful fits and often do not repeat.

Experiment: Nrf2 qHTS screen for inhibitors; note: nearly all actives have a fitted effect of over 60% in size
Conditions: A549 ARE-Fluc reporter, luciferase luminescence, 18-24 h; activity change, negative = inhibition: at 46 µM (top of the series)
Summary of the method: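 Cells were seeded and rested 2 h, then exposed to compounds for 18-24 h. CellTiter-Fluor was read first as a viability measure. BugLite was added 15 min before the final luminescent read of ARE-luciferase activity in A549 cells.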
% is set by controls: 0 for no effect and ±100 for the full control effect; potency is the fitted concentration of half-maximal effect.

| SMILES | Potency | activity change, negative = inhibition |
| --- | --- | --- |
| CC(=O)OC1C(O)C(C)OC(OC2C(OC(=O)C3CCC4C(C3)OC3(CC(OC(=O)/C=C/c5ccccc5)C(C)CO3)C43CO3)OC(C)C(O)C2OC(C)=O)C1O (stereo not drawn) | active: 0.0231 µM |  |
| COC(=O)C1=C(c2cccc(OCc3ccccc3)c2)C[C@@H]2CC[C@H]1N2C(=O)NCc1ccc([N+](=O)[O-])cc1 | inconclusive: 13 µM [falling, partial curve] |  |
| Nc1nonc1C(=O)N/N=C/c1ccc([N+](=O)[O-])o1 |  | inactive: -13.5% |
| CCNC(=O)C1OC(n2cnc3c(N)ncnc32)C(O)C1O (stereo not drawn) | inconclusive: 10.3 µM [falling, partial curve, poor fit] |  |
| CCCOP(=O)(O)c1c([N+](=O)[O-])cc(C(F)(F)F)cc1[N+](=O)[O-] (tested in a mixture with another compound) |  | inactive: 5.86% |
| O=C(CCS(=O)(=O)c1ccc(Cl)cc1)Nc1cccc(S(=O)(=O)N2CCCCCC2)c1 | inconclusive: 20.6 µM [falling, partial curve, poor fit] |  |
| CCCCCn1c(=O)c(C(=O)NCc2ccncc2)c(O)c2ccccc21 | inconclusive: 29.1 µM [falling, single point] |  |
| Cc1cc(=O)[nH]c(SCc2nc3ccccc3c(=O)n2-c2ccccc2C)n1 | inconclusive: 25.9 µM [activator, partial curve, poor fit] |  |
| O=C(Nc1cccc(OC(=O)N2CCCCC2)c1)N1CCCCC1 | inconclusive: 20.6 µM [falling, partial curve, poor fit] |  |
| Cc1ccc(OCC(=O)N2CCN(Cc3cccnc3)CC2)cc1 |  | inactive: -3.74% |
| COC(=O)C1=C(c2c(C)noc2C)C[C@@H]2CC[C@H]1N2C(=O)NCCNC(C)=O | inconclusive: 18.4 µM [activator, single point] |  |
| CCOC(=O)c1[nH]c(=O)c2ccccc2c1O | inconclusive: 1.3 µM [falling, full curve, poor fit] |  |
| O=C(c1ccc2c(c1)N(Cc1c(F)cccc1Cl)C(=O)c1ccccc1S2)N1CCC2(CC1)OCCO2 | active: 20.6 µM |  |
| C[C@H]1O[C@@H](O[C@H]2[C@@H](O)C[C@H](O[C@H]3[C@@H](O)C[C@H](O[C@H]4CC[C@@]5(C)[C@H](CC[C@@H]6[C@@H]5CC[C@]5(C)[C@@H](C7=CC(=O)OC7)CC[C@]65O)C4)O[C@@H]3C)O[C@@H]2C)C[C@H](O)[C@@H]1O | active: 0.0164 µM |  |
| CCN(CC)c1ccc(N=Cc2c(O)n(-c3ccc(OC)cc3)c(=O)[nH]c2=O)cc1 | inconclusive: 8.2 µM [falling, partial curve] |  |
| CCN(CC)c1ccc(/C=C2\C(=O)NC(=O)N(CC3CCCO3)C2=O)cc1 (stereo not drawn) |  | inactive: 7.36% |
| CCOP(=S)(OCC)SCC(=O)NC(C(=O)O)C(C)C (stereo not drawn) | inconclusive: 20.6 µM [activator, single point] |  |
| CC(CC(C)(C)N1CC1)=NNC(=O)Nc1cccc2ccccc12 |  | inactive: -18.8% |
| COc1ccccc1N1CCN(Cc2ccc(SC)cc2)CC1 | inconclusive: 23.1 µM [falling, single point] |  |

Ordered by number of heavy atoms (smallest number first): some entries from above.

| SMILES | Potency | activity change, negative = inhibition |
| --- | --- | --- |
| CCOC(=O)c1[nH]c(=O)c2ccccc2c1O | inconclusive: 1.3 µM [falling, full curve, poor fit] |  |
| Nc1nonc1C(=O)N/N=C/c1ccc([N+](=O)[O-])o1 |  | inactive: -13.5% |
| CC(CC(C)(C)N1CC1)=NNC(=O)Nc1cccc2ccccc12 |  | inactive: -18.8% |
| CCCCCn1c(=O)c(C(=O)NCc2ccncc2)c(O)c2ccccc21 | inconclusive: 29.1 µM [falling, single point] |  |
| COC(=O)C1=C(c2c(C)noc2C)C[C@@H]2CC[C@H]1N2C(=O)NCCNC(C)=O | inconclusive: 18.4 µM [activator, single point] |  |
| CCN(CC)c1ccc(N=Cc2c(O)n(-c3ccc(OC)cc3)c(=O)[nH]c2=O)cc1 | inconclusive: 8.2 µM [falling, partial curve] |  |
| COC(=O)C1=C(c2cccc(OCc3ccccc3)c2)C[C@@H]2CC[C@H]1N2C(=O)NCc1ccc([N+](=O)[O-])cc1 | inconclusive: 13 µM [falling, partial curve] |  |
| CC(=O)OC1C(O)C(C)OC(OC2C(OC(=O)C3CCC4C(C3)OC3(CC(OC(=O)/C=C/c5ccccc5)C(C)CO3)C43CO3)OC(C)C(O)C2OC(C)=O)C1O (stereo not drawn) | active: 0.0231 µM |  |

Following part

| SMILES | Potency | activity change, negative = inhibition |
| --- | --- | --- |
| COc1cc2c(cc1OC)[C@@H]1C(=O)c3ccc4c(c3O[C@@H]1CO2)C[C@H](C(C)C)O4 | active: 0.291 µM |  |
| CN(C)c1ccc(/C=C/[N+](=O)[O-])cc1 | inconclusive: 23.1 µM [activator, single point] |  |
| CCc1ccc(Nc2nc3c(S(=O)(=O)c4ccc(C)cc4)nnn3c3ccsc23)cc1 | inconclusive: 29.1 µM [falling, single point] |  |
| COCCNC(=O)c1c(N)n(CCC(C)C)c2nc3ccccc3nc12 | inconclusive: 2.59 µM [falling, partial curve, poor fit] |  |
| C[C@]12CC[C@H]3C(CCC4(O)CC(O)CC[C@]34C=O)C1=CC[C@H]2c1ccc(=O)oc1 (stereo partly drawn) | inconclusive: 29.1 µM [falling, single point] |  |
| O=C(Cc1c[nH]c2ccccc12)Nc1nccs1 | inconclusive: 0.0651 µM [falling, full curve, poor fit] |  |
| O=C(NCCN1CCOCC1)c1ccc(Cl)nc1Cl | inconclusive: 0.164 µM [falling, full curve, poor fit] |  |
| COc1ccc(CNCCc2c(C)[nH]c3ccc(OC(F)(F)F)cc23)c(OC)c1 | inconclusive: 9.2 µM [falling, partial curve, poor fit] |  |
| O=[N+]([O-])c1ccc(NC2CCN(Cc3ccccc3)CC2)c2ccncc12 | inconclusive: 14.6 µM [falling, partial curve, poor fit] |  |
| CCCSc1ncc(Cl)c(C(=O)N(Cc2ccccc2)c2ccc(OC)cc2)n1 | inconclusive: 23.1 µM [falling, single point] |  |
| CCCCCCC(Cl)(Cn1ccnc1)c1ccccc1 (stereo not drawn) |  | inactive: -6.42% |
| COc1ccc(NC(=O)c2cn(CCC#N)nc2-c2cccc(Br)c2)cc1 | inconclusive: 8.2 µM [falling, partial curve, poor fit] |  |
| COC1C(C)OC(OC2CC(C)(O)Cc3cc4c(c(O)c32)C(=O)c2c(O)cc3c(c2C4=O)OC2OC3(C)C(O)C(N(C)C)C2O)C(OC)C1(C)OC (stereo not drawn) | inconclusive: 0.184 µM [falling, full curve, poor fit] |  |
| CN1C(=O)c2ccccc2Sc2ccc(NC(=O)NCc3ccc(Cl)cc3)cc21 | active: 14.6 µM |  |
| COc1cc2c(c(OC)c1OC)-c1ccc(O)c(=O)cc1C(NC(C)=O)CC2 (stereo not drawn) | inconclusive: 0.411 µM [activator, full curve] |  |
| CCOc1cc2c(cc1OCC)-n1cccc1C(c1cccc([N+](=O)[O-])c1)NC2 (stereo not drawn) | inconclusive: 18.4 µM [falling, single point] |  |
| COC(=O)C1=C(c2ccccc2OCc2ccccc2)C[C@@H]2CC[C@H]1N2C(=O)NCc1ccc(Cl)cc1 | inconclusive: 18.4 µM [falling, single point] |  |
| C[N+]1(C)C2CCC1CC(OC(=O)c1ccco1)C2 (stereo not drawn) |  | inactive: -11.7% |
| COc1ccc(OCC(=O)N2CCCC(N3CCN(c4ccccc4C)CC3)C2)cc1 (stereo not drawn) | inconclusive: 5.8 µM [falling, single point] |  |
